PMC12406256, “Food Additives Inhibit Intestinal Drug Transporters but Have Limited Effect on In Vitro Drug Permeability” (Molecular Pharmaceutics, 2025)

Test: Fluorescence interference studies
Conditions: for interference with the fluorescence of the substrates: highest possible concentration, all substrates

SMILES	interference with the fluorescence of the substrates	quenching of LY and 5-CF fluorescence (lower concentrations (10-50% of maximal achievable)) [%]	quenching of LY fluorescence (highest concentration) [%]
CC1=C(/C=C/C(C)=C/C=C/C(C)=C/C=C/C=C(C)/C=C/C=C(C)/C=C/C2=C(C)CCCC2(C)C)C(C)(C)CCC1 [beta-carotene]	more than 20%	≤ 30	
Cc1cc(C(C)(C)C)c(O)c(C(C)(C)C)c1 [butylated hydroxytoluene]	did not interfere		
CCCCCCCCCCCCOC(=O)c1cc(O)c(O)c(O)c1 [dodecyl gallate]			≥ 20
CCCCCCCCOC(=O)c1cc(O)c(O)c(O)c1 [octyl gallate]	did not interfere		
